Experimental data reported in PMC7049810.
No constants are given. Whether binding was seen depends on the method and setting. Binding seen in cells or lysates may run through a third protein. These calls come from enrichment with a bait or labelling near it, and not all partners need be listed.

T1: NlpI, soluble version lacking its membrane anchor (Escherichia coli) (UniProt P0AFB1)
T1 sequence (chain, where used as fl-NlpI in MST, NT647 RED-NHS dye on amines): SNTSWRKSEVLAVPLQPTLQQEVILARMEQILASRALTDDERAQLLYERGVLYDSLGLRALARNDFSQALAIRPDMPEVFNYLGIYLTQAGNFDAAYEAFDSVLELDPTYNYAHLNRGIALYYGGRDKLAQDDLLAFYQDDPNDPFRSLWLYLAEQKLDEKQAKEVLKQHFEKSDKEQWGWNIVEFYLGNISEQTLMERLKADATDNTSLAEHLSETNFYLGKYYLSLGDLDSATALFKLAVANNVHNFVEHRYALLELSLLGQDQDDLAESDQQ


Tests used:
[1] = target: T1, NlpI, soluble version lacking its membrane anchor (Escherichia coli); test: affinity purification with mass spectrometry; NlpI coupled to Sepharose; detergent-solubilized E. coli membrane extract bound at high salt (400 mM NaCl), 6°C, eluted with 2 M NaCl; label-free LC-MS against a Tris-Sepharose control column; only the target purified
[2] = target: T1, NlpI, soluble version lacking its membrane anchor (Escherichia coli); test: affinity purification with mass spectrometry; NlpI coupled to Sepharose; detergent-solubilized E. coli membrane extract bound at low salt (50 mM NaCl), 6°C, eluted with 1 M NaCl; label-free LC-MS against a Tris-Sepharose control column; only the target purified

binding [1] | binding [2] | Binder
binds | binds | MltA, endogenous in E. coli membrane extract (enzyme, UniProt P0A935 21-365) CSSKPTDRGQQYKDGKFTQPFSLVNQPDAVGAPINAGDFAEQINHIRNSSPRLYGNQSNVYNAVQEWLRAGGDTRNMRQFGIDAWQMEGADNYGNVQFTGYYTPVIQARHTRQGEFQYPIYRMPPKRGRLPSRAEIYAGALSDKYILAYSNSLMDNFIMDVQGSGYIDFGDGSPLNFFSYAGKNGHAYRSIGKVLIDRGEVKKEDMSMQAIRHWGETHSEAEVRELLEQNPSFVFFKPQSFAPVKGASAVPLVGRASVASDRSIIPPGTTLLAEVPLLDNNGKFNGQYELRLMVALDVGGAIKGQHFDIYQGIGPEAGHRAGWYNHYGRVWVLKTAPGAGNVFSG
binds | binds | FtsX, endogenous in E. coli membrane extract (protein, UniProt P0AC30 1-352) MNKRDAINHIRQFGGRLDRFRKSVGGSGDGGRNAPKRAKSSPKPVNRKTNVFNEQVRYAFHGALQDLKSKPFATFLTVMVIAISLTLPSVCYMVYKNVNQAATQYYPSPQITVYLQKTLDDDAAAGVVAQLQAEQGVEKVNYLSREDALGEFRNWSGFGGALDMLEENPLPAVAVVIPKLDFQGTESLNTLRDRITQINGIDEVRMDDSWFARLAALTGLVGRVSAMIGVLMVAAVFLVIGNSVRLSIFARRDSINVQKLIGATDGFILRPFLYGGALLGFSGALLSLILSEILVLRLSSAVAEVAQVFGTKFDINGLSFDECLLLLLVCSMIGWVAAWLATVQHLRHFTPE
